The target of the experiment is Med14 (Rgr1/Med14), subunit of the Mediator complex (S. cerevisiae (endogenous in yeast)) (UniProt P19263). Put plainly: co-IP; WCEs of yeast strains expressing LexA-Med6p derivatives, DEAE column fractionation to enrich Pol II holoenzyme; immunopurified with beads-coupled anti-Med14 antibody; western with anti-LexA and anti-Med14.

Sequences of proteins named here, by UniProt entry; tags and fusion partners are left off.
UniProt P19263: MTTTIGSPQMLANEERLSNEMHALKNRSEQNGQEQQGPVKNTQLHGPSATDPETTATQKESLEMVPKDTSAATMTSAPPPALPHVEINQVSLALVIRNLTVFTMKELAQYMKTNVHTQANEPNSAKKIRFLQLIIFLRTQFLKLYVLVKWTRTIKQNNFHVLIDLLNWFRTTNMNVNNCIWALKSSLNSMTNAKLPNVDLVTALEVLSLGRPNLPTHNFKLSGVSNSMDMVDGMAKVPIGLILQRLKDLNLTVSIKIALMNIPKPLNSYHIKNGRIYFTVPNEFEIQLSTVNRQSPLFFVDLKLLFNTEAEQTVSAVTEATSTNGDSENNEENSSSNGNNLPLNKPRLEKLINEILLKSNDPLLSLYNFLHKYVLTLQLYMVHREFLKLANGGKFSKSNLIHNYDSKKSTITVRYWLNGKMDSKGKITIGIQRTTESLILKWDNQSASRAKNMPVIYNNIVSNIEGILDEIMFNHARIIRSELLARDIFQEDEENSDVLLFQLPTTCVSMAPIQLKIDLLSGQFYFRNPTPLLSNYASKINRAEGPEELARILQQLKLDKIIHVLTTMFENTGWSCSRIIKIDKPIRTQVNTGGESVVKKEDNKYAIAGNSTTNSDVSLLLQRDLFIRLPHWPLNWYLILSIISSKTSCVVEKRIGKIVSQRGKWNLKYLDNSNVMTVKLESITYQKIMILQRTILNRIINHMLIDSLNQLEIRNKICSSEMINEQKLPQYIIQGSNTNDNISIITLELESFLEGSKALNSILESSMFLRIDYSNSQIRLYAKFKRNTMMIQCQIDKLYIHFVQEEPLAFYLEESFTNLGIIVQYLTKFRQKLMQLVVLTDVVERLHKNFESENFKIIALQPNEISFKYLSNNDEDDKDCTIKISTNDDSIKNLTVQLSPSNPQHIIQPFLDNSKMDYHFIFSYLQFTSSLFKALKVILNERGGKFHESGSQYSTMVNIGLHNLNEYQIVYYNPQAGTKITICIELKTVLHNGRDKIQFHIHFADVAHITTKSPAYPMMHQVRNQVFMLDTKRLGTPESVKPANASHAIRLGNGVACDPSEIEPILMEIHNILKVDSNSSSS

These are yes or no findings as the source states them, for the method shown. In cells and extracts the contact can be indirect. Some entries that bind do so weakly or less than the wild type. Where a sequence is shown, tags or fusion partners need not be part of it.

B1: LexA-fused wild-type Med6p (S. cerevisiae) (protein, UniProt P38782 1-295)
chain: MNVTPLDELQWKSPEWIQVFGLRTENVLDYFAESPFFDKTSNNQVIKMQRQFSQLNDPNAAVNMTQNIMTLPDGKNGNLEEEFAYVDPARRQILFKYPMYMQLEEELMKLDGTEYVLSSVREPDFWVIRKQRRTNNSGVGSAKGPEIIPLQDYYIIGANIYQSPTIFKIVQSRLMSTSYHLNSTLESLYDLIEFQPSQGVHYKVPTDTSTTATAATNGNNAGGGSNKSSVRPTGGANMATVPSTTNVNMTVNTMGTGGQTIDNGTGRTGNGNMGITTEMLDKLMVTSIRSTPNYI
With B1, the binding result was “binds”.

The values are drawn from publication PMC5818915.
